Laboratory results: PubChem BioAssay AID2517 (National Center for Advancing Translational Sciences (NCATS), 2010)
Among all 350,000 compounds or so, about 1,200 (0.34%) were called active. Inconclusive results, whose numbers are uncertain, are shown with a selection of clear calls. The call rests on the fitted dose curve; in most records, active means well fitted inhibition curve with a large enough effect; inconclusive means small, poorly fitted or top-dose-only effect; inactive means no such curve, though single readings can be large or run the other way. Potencies beside an inconclusive call are fits to weak or partial responses and may not hold up.
Further: nearly all actives have a fitted effect of over 55% in size.
Potency means the concentration at half of the fitted maximal effect.
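Wherever activity change, negative = inhibition is given: plate controls were vehicle for no effect and reference inhibitor for full effect.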

Sequences of proteins named here, by UniProt entry; tags and fusion partners are left off.
UniProt P27695, whole entry, looked up: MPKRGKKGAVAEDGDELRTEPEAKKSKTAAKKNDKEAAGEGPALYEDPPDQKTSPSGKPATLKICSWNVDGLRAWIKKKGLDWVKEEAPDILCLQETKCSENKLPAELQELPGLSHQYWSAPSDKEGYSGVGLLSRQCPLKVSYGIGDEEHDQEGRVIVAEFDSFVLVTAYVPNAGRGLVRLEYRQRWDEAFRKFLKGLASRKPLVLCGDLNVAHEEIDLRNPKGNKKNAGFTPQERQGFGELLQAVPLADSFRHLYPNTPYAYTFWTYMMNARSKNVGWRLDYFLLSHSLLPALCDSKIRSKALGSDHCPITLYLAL

Each compound was assayed against DNA repair nuclease/redox regulator APEX1 (Homo sapiens) (UniProt P27695) (assay: qHTS Assay for Inhibitors of the Human Apurinic/apyrimidinic Endonuclease 1 (APE1)). Conditions: recombinant APE1, TAMRA/BHQ-2 abasic DNA cleavage fluorescence; activity change, negative = inhibition: at 65.8 µM (top of the series).
In short: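 0.75 nM APE1 + cpd, 15 min RT; start w/ 50 nM TAMRA/BHQ-2 THF-abasic dsDNA; kinetic fluor 525/598 nm ×3 reads @60 s; Δ(read3−read1); normalized to DMSO and NSC13755 control wells.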
`Cc1cc(C)c(NC(=O)CSc2nc3ccc(NC(=O)CSc4nnnn4-c4ccccc4)cc3s2)c(C)c1` was tested, and the Potency was inconclusive: 1 µM [inhibitor, full curve].
`CC1CCCC(NC(=O)C2CCCN2S(=O)(=O)c2cccc3nsnc23)C1C` (stereo unspecified) was tested, and the Potency was inconclusive: 10 µM [inhibitor, single point].
For `O=C(Cc1c(Cl)cccc1Cl)OCC(=O)N1CCN(C(=O)c2ccco2)CC1`, the Potency was inconclusive: 0.0004 µM [inhibitor, full curve, poor fit].
In the case of `COc1ccc2c(c1)O[C@@H](c1ccc3c(c1)OCO3)[C@H](OC(=O)Nc1ccc(OC(F)F)cc1)C2=O`, the Potency is reported as inconclusive: 158 µM [inhibitor, partial curve].
For `Clc1ccc(CSCCc2ccncc2)cc1`, the Potency was inconclusive: 8.91 µM [inhibitor, single point].
`CN(C)c1ccc(/C=C/c2ccc3ccccc3[n+]2C)cc1` was tested, and the “activity change, negative = inhibition” value was inactive: -1.7%.
In the case of `O=C(Nc1ccc2nc(-c3ccc4nc[nH]c4c3)[nH]c2c1)c1cccs1`, the Potency is reported as inconclusive: 17.8 µM [inhibitor, partial curve, poor fit].
With `Cc1cccc(C(=O)N=c2c(C#N)cc3c(=O)n4cccc(C)c4nc3n2Cc2ccco2)c1` the Potency was inconclusive: 35.5 µM [inhibitor, single point].
With `CCN(C(=O)COC(=O)CCc1ccc(OC)cc1)c1c(N)n(Cc2ccccc2)c(=O)[nH]c1=O` the “activity change, negative = inhibition” value was inactive: 6.17%.
For `Cc1ccc(C(=O)C2=C(O)C(=O)N(c3ncccn3)C2c2cccc(Cl)c2)o1` (stereo unspecified), the “activity change, negative = inhibition” value was inactive: 9.89%.
`Cc1c(C(=O)N2CCCCC2C)sc2ncnc(N3CCc4ccccc4C3)c12` (stereo unspecified) was tested, and the “activity change, negative = inhibition” value was inactive: 2.72%.
With `Cc1cc(C)nc(SCc2nnc(SCC(=O)Nc3nc(-c4ccccc4)cs3)n2C)n1` the “activity change, negative = inhibition” value was inactive: -2.18%.
For `COc1ccc(C(=O)COC(=O)c2cccnc2Cl)c(OC)c1`, the “activity change, negative = inhibition” value was inactive: -16.5%.
In the case of `Cc1ccc2nc(NC(=O)c3ccc(-c4nc5ccccc5s4)s3)sc2c1`, the Potency is reported as inconclusive: 4.47 µM [inhibitor, single point].
For `COc1cc(/C=N/NC(=O)C(N)=O)ccc1OCC(=O)N1C(C)CCCC1C` (stereo unspecified), the Potency was inconclusive: 28.2 µM [inhibitor, partial curve].
With `CCOC(=O)C1=C(C)N(CCCCCC(=O)O)C(=O)NC1c1ccccc1Cl` (stereo unspecified) the Potency was inconclusive: 7.94 µM [inhibitor, single point].
With `COc1ccc(Cl)cc1C(=O)NNC(=O)CSc1nnc2ccccn12` the Potency was inconclusive: 1.26 µM [inhibitor, full curve].
In the case of `COc1ccc(/C=C/C(=O)OCC(=O)NCc2ccco2)cc1OC`, the Potency is reported as inconclusive: 31.6 µM [inhibitor, single point].
`CC(NC(=O)CCSc1nc(-c2ccco2)cc(C(F)(F)F)n1)c1ccccc1` (stereo unspecified) was tested, and the Potency was inconclusive: 44.7 µM [inhibitor, single point].
`Cc1ccn2cc(-c3cccc(NC(=O)C(C)C)c3)nc2c1` was tested, and the Potency was inconclusive: 28.2 µM [inhibitor, single point].
With `Cc1ccc2ncnc(Nc3cccc([N+](=O)[O-])c3)c2c1` the “activity change, negative = inhibition” value was inactive: 10.1%.
In the case of `C=CCNC(=O)CN1CCC(O)(c2ccc(F)cc2)CC1`, the “activity change, negative = inhibition” value is reported as inactive: 0.121%.
With `Cn1c(Cn2nnc3ccccc32)nnc1SCC(=O)N1c2ccccc2CCc2ccccc21` the Potency was inconclusive: 8.91 µM [inhibitor, partial curve, poor fit].
`CCOC(=O)c1cc(NC(=O)COc2ccc([N+](=O)[O-])cc2)cc(C(=O)OCC)c1` was tested, and the Potency was inconclusive: 8.91 µM [inhibitor, partial curve].
For `COc1cc(OC)c2c(c1O)OC(c1ccccc1)CC2=O` (stereo unspecified), the Potency was active: 7.94 µM.
For `CCCC[C@@H](C)/C=C(C)/C=C(\C)C(=O)NC1=C[C@@](O)(/C=C/C=C/C=C/C(=O)NC2=C(O)CCC2=O)[C@@H]2O[C@@H]2C1=O`, the Potency was inconclusive: 22.4 µM [inhibitor, single point].
For `O=C(OCCn1cncn1)c1cc2ccccc2oc1=O`, the Potency was inconclusive: 0.0891 µM [inhibitor, full curve, poor fit].
With `CCCCCC(=O)N1CC2(CC(c3cccc(NC(=O)[C@@H]4CCC(=O)N4)c3)=NO2)C[C@@H]1C(N)=O` (stereo partly specified) the “activity change, negative = inhibition” value was inactive: 16.4%.
For `CCN(C(=O)CSC1=Nc2ccccc2C2CC=NN12)C1CCS(=O)(=O)C1` (stereo unspecified), the Potency was inconclusive: 28.2 µM [inhibitor, single point].
With `N#Cc1cc(C#N)c(SCC(=O)N2CC(=O)Nc3ccccc32)nc1N` the “activity change, negative = inhibition” value was inactive: 18.5%.
In the case of `O=C(Cc1ccccc1)N/N=C/c1ccc(OCC(=O)Nc2ccccc2)cc1`, the Potency is reported as inconclusive: 31.6 µM [inhibitor, single point].
`Cc1ccc(-n2c(O)c(/C=N/NC(=O)C3COc4ccccc4O3)c3ccccc3c2=O)cc1` (stereo unspecified) was tested, and the Potency was inconclusive: 14.1 µM [inhibitor, partial curve, poor fit].
For `O=C(CN1CCCCC1)N1N=C(c2cccs2)CC1c1cccs1` (stereo unspecified), the Potency was inconclusive: 0.0398 µM [inhibitor, full curve, poor fit].
`N#Cc1nc(NCCO)nc(Nc2ccccc2)n1` was tested, and the Potency was inconclusive: 39.8 µM [inhibitor, single point].
With `Cc1cccc(CNc2ccc(C(CC(N)=O)NC(=O)c3cccc(Br)c3)cc2[N+](=O)[O-])c1` (stereo unspecified) the Potency was inconclusive: 3.55 µM [inhibitor, single point].
In the case of `CC(C)NC(=O)NNC(=O)Cn1nnc(-c2cccc(Cl)c2Cl)n1`, the Potency is reported as inconclusive: 7.08 µM [inhibitor, single point].
`CCCn1c(C)cc(C(=O)COC(=O)c2ccc(Cl)c(S(=O)(=O)N3CCCC3)c2)c1C` was tested, and the Potency was inconclusive: 0.0032 µM [inhibitor, full curve, poor fit].
In the case of `CCOC(=O)OCC1OC(C#Cc2ccccc2)C=CC1Oc1cccc(N(C)C)c1` (stereo unspecified), the Potency is reported as inconclusive: 3.55 µM [inhibitor, single point].
With `COc1ccc(-c2[nH]c(-c3ccccc3)nc2SCC(=O)NC2CCCC2)cc1` the Potency was inconclusive: 3.55 µM [inhibitor, single point].
For `COc1cc(C(=O)COC(=O)c2ccc([N+](=O)[O-])o2)cc(OC)c1OC`, the Potency was inconclusive: 37.7 µM [inhibitor, single point].
`COC(=O)NC(c1ccco1)[C@]1(C(C)=O)CCCC1=O` (stereo partly specified) was tested, and the Potency was inconclusive: 3.55 µM [inhibitor, single point].
For `CC1CC(C)(C)CC2(C1)NC(=S)N(c1ccccc1)N2` (stereo unspecified), the “activity change, negative = inhibition” value was inactive: 11.2%.
In the case of `O=C1N[C@@H](c2ccccc2)COC(=O)[C@H](Cc2ccc(F)cc2)C/C=C\C[C@@H]1CC(=O)N(CCO)Cc1ccccc1`, the “activity change, negative = inhibition” value is reported as inactive: 27.2%.
In the case of `Cc1ccc(NC(=S)N(Cc2cccc(Br)c2)CC2CCC(C(=O)O)CC2)cc1` (stereo unspecified), the Potency is reported as inconclusive: 10 µM [inhibitor, partial curve, poor fit].
In the case of `CC1=[N+](C)c2c(ccc3cccnc23)C1(C)C`, the Potency is reported as inconclusive: 7.08 µM [inhibitor, single point].
In the case of `COc1ccc(OC)c(/C=C2\SC(=S)N(NS(=O)(=O)c3ccccc3)C2=O)c1`, the “activity change, negative = inhibition” value is reported as inactive: 7.93%.
`CC1=CC(=O)N(c2ccn(C)n2)C1=O` was tested, and the Potency was inconclusive: 3.16 µM [inhibitor, partial curve].
For `Oc1ccc(C=Nc2ccc(N3CCOCC3)cc2)c(O)c1`, the “activity change, negative = inhibition” value was inactive: -5.25%.
With `COc1ccc(CN2C(=O)c3cccnc3C2O)cc1` (stereo unspecified) the “activity change, negative = inhibition” value was inactive: -1.96%.
In the case of `COC(=O)N1C(c2ccccc2)=Cc2ccccc2C1CC(C)=O` (stereo unspecified), the activity change, negative = inhibition is reported as inactive: -3.32% [at 12.4 µM].
For `COc1ccccc1CNC(=O)c1ccc(-c2ccccc2C(F)(F)F)o1`, the Potency was inconclusive: 35.5 µM [inhibitor, single point].
In the case of `O=C(O)c1cc(N/N=C/c2ccc3c(c2)OCO3)ccc1Cl`, the “activity change, negative = inhibition” value is reported as inactive: 2.3%.
In the case of `COC(=O)c1cc(C(=O)OC)cc(-n2c(C)cc(C=O)c2C)c1`, the “activity change, negative = inhibition” value is reported as inactive: -2.59%.
In the case of `COc1ccc(S(=O)(=O)NCCSCc2ccco2)cc1OC`, the Potency is reported as inconclusive: 39.8 µM [inhibitor, partial curve].
In the case of `CCC(=Nc1ccccc1OC)C1=C(O)CC(c2ccccc2)CC1=O` (stereo unspecified), the Potency is reported as inconclusive: 44.7 µM [inhibitor, single point].
In the case of `Cc1nn(-c2nc3ccccc3[nH]2)c(N)c1-c1ccccc1`, the Potency is reported as inconclusive: 35.5 µM [inhibitor, single point].
For `Cc1ccc(NC(=O)OCc2cc(-c3ccccc3)on2)cc1`, the Potency was inconclusive: 0.251 µM [inhibitor, full curve].
For `CC#CC#Cc1cccc(=O)o1`, the Potency was inconclusive: 31.6 µM [inhibitor, partial curve].
With `Cc1cc(=O)n2c(C(=O)Nc3ccc(C)c(C)c3)c(C(=O)Nc3ccccc3)sc2n1` the Potency was inconclusive: 31.6 µM [inhibitor, single point].
`O=C(/C=C/c1ccco1)Nc1cc(Cl)ccc1C(=O)O` was tested, and the Potency was inconclusive: 35.5 µM [inhibitor, single point].
In the case of `CCCNC(=O)OC[C@@H]1O[C@H](CCO/N=C\C[C@H]2C=C[C@H](OC(C)=O)[C@@H](COC(C)=O)O2)C=C[C@@H]1Oc1ccc(OC)cc1`, the Potency is reported as inconclusive: 5.62 µM [inhibitor, single point].
`c1ccc(CCNc2ccccc2)cc1` was tested, and the Potency was inconclusive: 39.8 µM [inhibitor, single point].
With `COC(=O)c1cnc(Nc2cccc(C(F)(F)F)c2)c([N+](=O)[O-])c1` the “activity change, negative = inhibition” value was inactive: 7.63%.
For `Cc1ccc([N+](=O)[O-])cc1S(=O)(=O)Nc1ccc(C(=O)N(C)C)cc1`, the Potency was inconclusive: 7.08 µM [inhibitor, partial curve].
`CCOC(=O)N/N=C/c1cccc(Cl)c1Cl` was tested, and the Potency was inconclusive: 7.94 µM [inhibitor, full curve].
With `COc1cccc(NC(=O)NCCC2=CCCCC2)c1` the Potency was inconclusive: 1.12 µM [inhibitor, full curve, poor fit].
